Publication doi:10.1101/605451

Molecular target: AC012254.2 (human)
Assay: two-hybrid

binding: binds
B1: TMEM258 (protein, UniProt P61165 1-79)
chain: MELEAMSRYTSPVNPAVFPHLTVVLLAIGMFFTAWFFVYEVTSTKYTRDIYKELLISLVASLFMGFGVLFLLLWVGIYV

These are yes or no findings as the source states them, for the method shown. Binding calls can cover weak binding; strength is not graded here.
